Results reported in the supplement of paper PMC6078165.

System: BT20
Assay: relative JC-1 red fluorescence (viability) vs pre-drug, coculture with fibroblast (fraction); higher = more viable cancer cells
Method: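 JC-1 labelled TNBC cells cocultured 1:1 (1,500 cells each) with CellTrace Violet stained primary or stromal fibroblasts in 384-well plates in FluoroBrite medium, treated with one of 42 anticancer drugs at 0.1, 1, 10 or 100 uM. JC-1 red fluorescence (mitochondrial integrity in cancer cells only) was read by plate reader every 8 h for 72 h. Values are normalised to each well's pre-drug value. The stock of one drug was tenfold lower, so its dose labels may be too high.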

CCN(CC)CCNC(=O)c1c(C)[nH]c(/C=C2\C(=O)Nc3ccc(F)cc32)c1C [Sunitinib]
relative JC-1 red fluorescence
Settings	8 h	16 h	24 h	32 h	40 h	48 h	56 h	64 h	72 h
0.1 µM, coculture fibroblast: C12385	0.8559 ± 0.0028	0.808 ± 0.0083	0.79114 ± 0.00077	0.7383 ± 0.0023	0.675 ± 0.0037	0.657 ± 0.002	0.6427 ± 0.0027	0.6397 ± 0.0036	0.6246 ± 0.0044
0.1 µM, coculture fibroblast: H6013	0.945 ± 0.05	0.809 ± 0.1	0.783 ± 0.11	0.851 ± 0.026	0.746 ± 0.07	0.785 ± 0.012	0.76 ± 0.019	0.848 ± 0.13	0.835 ± 0.13
0.1 µM, coculture fibroblast: H6019	0.8635 ± 0.0013	0.823 ± 0.0084	0.82 ± 0.04	0.768 ± 0.034	0.724 ± 0.048	0.702 ± 0.052	0.671 ± 0.064	0.64 ± 0.069	0.619 ± 0.077
0.1 µM, coculture fibroblast: H6076	0.833 ± 0.15	0.9068 ± 0.0057	0.854 ± 0.026	0.836 ± 0.033	0.813 ± 0.084	0.794 ± 0.091	0.792 ± 0.12	0.789 ± 0.13	0.783 ± 0.13
0.1 µM, coculture fibroblast: H6231	0.833 ± 0.067	0.899 ± 0.014	0.835 ± 0.024	0.776 ± 0.028	0.727 ± 0.029	0.677 ± 0.026	0.643 ± 0.039	0.613 ± 0.033	0.592 ± 0.042
0.1 µM, coculture fibroblast: HADF	0.956 ± 0.035	0.914 ± 0.06	0.886 ± 0.046	0.839 ± 0.069	0.823 ± 0.07	0.787 ± 0.062	0.773 ± 0.053	0.757 ± 0.049	0.732 ± 0.046
0.1 µM, coculture fibroblast: HCFa	0.9096 ± 0.0011	0.87769 ± 0.00074	0.863 ± 0.026	0.799 ± 0.027	0.756 ± 0.045	0.723 ± 0.058	0.699 ± 0.073	0.682 ± 0.077	0.647 ± 0.082
0.1 µM, coculture fibroblast: HCPF	0.915 ± 0.021	0.958 ± 0.032	0.92 ± 0.046	0.885 ± 0.08	0.869 ± 0.13	0.838 ± 0.16	0.812 ± 0.17	0.82 ± 0.19	0.794 ± 0.21
0.1 µM, coculture fibroblast: HHSteC	0.924 ± 0.012	0.908 ± 0.017	0.916 ± 0.039	0.849 ± 0.043	0.827 ± 0.053	0.798 ± 0.071	0.788 ± 0.077	0.769 ± 0.096	0.746 ± 0.092
0.1 µM, coculture fibroblast: HMF	0.976 ± 0.021	0.904 ± 0.035	0.811 ± 0.046	0.761 ± 0.045	0.732 ± 0.045	0.689 ± 0.044	0.657 ± 0.054	0.627 ± 0.063	0.603 ± 0.065
0.1 µM, coculture fibroblast: HPFa	0.902 ± 0.024	0.867 ± 0.036	0.876 ± 0.042	0.814 ± 0.057	0.819 ± 0.08	0.789 ± 0.094	0.774 ± 0.11	0.762 ± 0.12	0.724 ± 0.12
0.1 µM, coculture fibroblast: HUF	0.89 ± 0.052	0.797 ± 0.061	0.747 ± 0.09	0.657 ± 0.083	0.607 ± 0.075	0.569 ± 0.058	0.545 ± 0.061	0.525 ± 0.051	0.512 ± 0.043
0.1 µM, coculture fibroblast: Hs5	0.837 ± 0.2	0.9192 ± 0.0087	0.872 ± 0.02	0.842 ± 0.024	0.8 ± 0.039	0.768 ± 0.034	0.752 ± 0.049	0.725 ± 0.048	0.708 ± 0.046
0.1 µM, coculture fibroblast: Hs27A	0.904 ± 0.032	0.849 ± 0.13	0.917 ± 0.076	0.902 ± 0.12	0.854 ± 0.11	0.841 ± 0.089	0.819 ± 0.091	0.787 ± 0.088	0.741 ± 0.086
0.1 µM, coculture fibroblast: Hs343T	0.911 ± 0.052	0.878 ± 0.049	0.794 ± 0.038	0.742 ± 0.04	0.698 ± 0.031	0.661 ± 0.028	0.623 ± 0.024	0.603 ± 0.027	0.582 ± 0.024
0.1 µM, coculture fibroblast: WS1	0.842 ± 0.013	0.789 ± 0.01	0.767 ± 0.022	0.712 ± 0.04	0.65 ± 0.039	0.633 ± 0.039	0.616 ± 0.048	0.606 ± 0.044	0.601 ± 0.049
1 µM, coculture fibroblast: C12385	0.872 ± 0.013	0.818 ± 0.0014	0.787 ± 0.017	0.738 ± 0.034	0.685 ± 0.044	0.655 ± 0.041	0.634 ± 0.041	0.615 ± 0.038	0.602 ± 0.028
1 µM, coculture fibroblast: H6013	0.9082 ± 0.0025	0.875 ± 0.022	0.846 ± 0.045	0.806 ± 0.057	0.782 ± 0.068	0.769 ± 0.08	0.767 ± 0.082	0.748 ± 0.087	0.732 ± 0.085
1 µM, coculture fibroblast: H6019	0.8456 ± 0.0021	0.7989 ± 0.0027	0.7802 ± 0.0024	0.7122 ± 0.0037	0.656 ± 0.015	0.637 ± 0.021	0.595 ± 0.029	0.564 ± 0.024	0.541 ± 0.021
1 µM, coculture fibroblast: H6076	0.9722 ± 0.007	0.923 ± 0.0096	0.86 ± 0.0062	0.8258 ± 0.0019	0.8119 ± 0.0069	0.7858 ± 0.0062	0.769 ± 0.0077	0.7595 ± 0.004	0.7405 ± 0.0032
1 µM, coculture fibroblast: H6231	0.832 ± 0.12	0.9244 ± 0.0023	0.855 ± 0.014	0.776 ± 0.023	0.72 ± 0.019	0.667 ± 0.019	0.627 ± 0.02	0.592 ± 0.033	0.564 ± 0.041
1 µM, coculture fibroblast: HADF	0.906 ± 0.11	0.907 ± 0.028	0.952 ± 0.048	0.869 ± 0.084	0.866 ± 0.097	0.902 ± 0.045	0.939 ± 0.015	0.94 ± 0.037	0.951 ± 0.027
1 µM, coculture fibroblast: HCFa	0.9702 ± 0.0063	0.885 ± 0.1	0.879 ± 0.081	0.847 ± 0.059	0.871 ± 0.037	0.792 ± 0.13	0.807 ± 0.1	0.788 ± 0.11	0.812 ± 0.039
1 µM, coculture fibroblast: HCPF	0.9126 ± 0.0032	0.981 ± 0.017	0.911 ± 0.0039	0.86183 ± 6.9e-05	0.803 ± 0.011	0.75 ± 0.03	0.707 ± 0.034	0.679 ± 0.043	0.639 ± 0.055
1 µM, coculture fibroblast: HHSteC	0.906 ± 0.021	0.888 ± 0.057	0.878 ± 0.081	0.831 ± 0.1	0.808 ± 0.14	0.779 ± 0.15	0.778 ± 0.17	0.756 ± 0.18	0.732 ± 0.18
1 µM, coculture fibroblast: HMF	0.842 ± 0.2	0.972 ± 0.018	0.91 ± 0.0092	0.86 ± 0.019	0.826 ± 0.032	0.788 ± 0.02	0.751 ± 0.03	0.733 ± 0.035	0.705 ± 0.038
1 µM, coculture fibroblast: HPFa	0.9269 ± 0.0071	0.928 ± 0.019	0.955 ± 0.027	0.896 ± 0.038	0.888 ± 0.041	0.856 ± 0.054	0.849 ± 0.048	0.827 ± 0.06	0.779 ± 0.054
1 µM, coculture fibroblast: HUF	0.909 ± 0.023	0.836 ± 0.027	0.819 ± 0.01	0.7588 ± 0.0032	0.727 ± 0.0073	0.69077 ± 0.00021	0.6844 ± 0.004	0.672 ± 0.0023	0.6599 ± 0.0036
1 µM, coculture fibroblast: Hs5	0.859 ± 0.11	0.934 ± 0.065	0.872 ± 0.046	0.821 ± 0.042	0.776 ± 0.022	0.744 ± 0.0071	0.716 ± 0.025	0.682 ± 0.033	0.643 ± 0.045
1 µM, coculture fibroblast: Hs27A	0.837 ± 0.12	0.7389 ± 0.0064	0.887 ± 0.067	0.881 ± 0.044	0.842 ± 0.035	0.798 ± 0.07	0.869 ± 0.052	0.856 ± 0.082	0.779 ± 0.037
1 µM, coculture fibroblast: Hs343T	0.9855 ± 0.0075	0.9253 ± 0.0083	0.8542 ± 0.0043	0.797 ± 0.011	0.7641 ± 0.0075	0.721 ± 0.0079	0.69 ± 0.0028	0.662 ± 0.015	0.639 ± 0.022
1 µM, coculture fibroblast: WS1	0.8209 ± 0.0057	0.769 ± 0.031	0.743 ± 0.056	0.698 ± 0.063	0.657 ± 0.067	0.638 ± 0.07	0.617 ± 0.071	0.597 ± 0.069	0.581 ± 0.07

± gives the standard deviation of the averaged measurements. Values are relative to the signal before dosing, not to a vehicle control; the signal also falls without drug.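 Fibroblast labels name human fibroblasts: mostly primary ones from tissues such as uterus (C12385, HUF), lung (H6013), bone (Hs27A), adrenal (HADF) and skin (WS1), plus mammary HMF and breast cancer-associated Hs343T. The cancer cells are basal-like or mesenchymal-like triple-negative breast cancer lines. The paper calls a changed response a hit when it shifts by more than 3x the replicate standard deviation. The tissue of the other fibroblasts is not given here.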
